Experimental data as given in the supplement of paper PMC6078165.
± gives the standard deviation of the averaged measurements. The reference is the same well before dosing, and untreated signal decays as well.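 Labels refer to human fibroblasts, largely primary: uterine (C12385, HUF), lung (H6013), bone (Hs27A), adrenal (HADF), skin (WS1), plus mammary HMF and breast cancer-associated Hs343T. Cancer lines are basal-like or mesenchymal-like triple-negative breast cancer. The paper counts as hits responses shifting over 3x the replicate standard deviation. The tissue of the other fibroblasts is not given here.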

System: HCC1143
Test: relative JC-1 red fluorescence (viability) vs pre-drug, coculture with fibroblast (fraction); higher = more viable cancer cells
Procedure: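 JC-1 labelled TNBC cells cocultured 1:1 (1,500 cells each) with CellTrace Violet stained primary or stromal fibroblasts in 384-well plates in FluoroBrite medium, treated with one of 42 anticancer drugs at 0.1, 1, 10 or 100 uM. JC-1 red fluorescence (mitochondrial integrity in cancer cells only) was read by plate reader every 8 h for 72 h. Values are normalised to each well's pre-drug value. The stock of one drug was tenfold lower, so its dose labels may be too high.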

CCc1c2c(nc3ccc(OC(=O)N4CCC(N5CCCCC5)CC4)cc13)-c1cc3c(c(=O)n1C2)COC(=O)[C@]3(O)CC [Irinotecan]
relative JC-1 red fluorescence
Conditions | 8 h | 16 h | 24 h | 32 h | 40 h | 48 h | 56 h | 64 h | 72 h
0.1 µM, coculture fibroblast: C12385 | 0.856 ± 0.014 | 0.773 ± 0.042 | 0.715 ± 0.076 | 0.666 ± 0.095 | 0.601 ± 0.097 | 0.556 ± 0.11 | 0.518 ± 0.12 | 0.479 ± 0.12 | 0.461 ± 0.13
0.1 µM, coculture fibroblast: H6013 | 0.7192 ± 0.0036 | 0.643 ± 0.036 | 0.598 ± 0.04 | 0.579 ± 0.05 | 0.518 ± 0.053 | 0.503 ± 0.068 | 0.466 ± 0.072 | 0.45 ± 0.068 | 0.407 ± 0.079
0.1 µM, coculture fibroblast: H6019 | 0.809 ± 0.031 | 0.732 ± 0.039 | 0.685 ± 0.042 | 0.629 ± 0.042 | 0.576 ± 0.034 | 0.538 ± 0.041 | 0.488 ± 0.047 | 0.439 ± 0.048 | 0.4 ± 0.048
0.1 µM, coculture fibroblast: H6076 | 0.801 ± 0.0084 | 0.755 ± 0.021 | 0.7374 ± 0.0073 | 0.764 ± 0.038 | 0.653 ± 0.028 | 0.666 ± 0.023 | 0.643 ± 0.039 | 0.635 ± 0.039 | 0.66 ± 0.046
0.1 µM, coculture fibroblast: H6231 | 0.803 ± 0.025 | 0.789 ± 0.0092 | 0.72117 ± 0.00041 | 0.645 ± 0.015 | 0.6124 ± 0.0038 | 0.581 ± 0.0067 | 0.53865 ± 0.0002 | 0.506 ± 0.0039 | 0.479 ± 0.0071
0.1 µM, coculture fibroblast: HADF | 0.737 ± 0.023 | 0.67 ± 0.043 | 0.637 ± 0.047 | 0.633 ± 0.042 | 0.549 ± 0.061 | 0.522 ± 0.065 | 0.485 ± 0.065 | 0.454 ± 0.063 | 0.433 ± 0.041
0.1 µM, coculture fibroblast: HCFa | 0.748 ± 0.031 | 0.679 ± 0.065 | 0.645 ± 0.069 | 0.615 ± 0.059 | 0.544 ± 0.082 | 0.517 ± 0.079 | 0.473 ± 0.083 | 0.44 ± 0.08 | 0.412 ± 0.076
0.1 µM, coculture fibroblast: HCPF | 0.791 ± 0.0089 | 0.75 ± 0.025 | 0.743 ± 0.024 | 0.773 ± 0.021 | 0.688 ± 0.04 | 0.668 ± 0.045 | 0.637 ± 0.047 | 0.616 ± 0.034 | 0.626 ± 0.034
0.1 µM, coculture fibroblast: HHSteC | 0.794 ± 0.0096 | 0.7339 ± 0.0014 | 0.683 ± 0.0075 | 0.641 ± 0.0073 | 0.582 ± 0.013 | 0.556 ± 0.011 | 0.516 ± 0.015 | 0.489 ± 0.024 | 0.443 ± 0.014
0.1 µM, coculture fibroblast: HMF | 0.7852 ± 0.0021 | 0.762 ± 0.0055 | 0.721 ± 0.049 | 0.706 ± 0.078 | 0.65 ± 0.071 | 0.638 ± 0.089 | 0.609 ± 0.1 | 0.587 ± 0.11 | 0.572 ± 0.13
0.1 µM, coculture fibroblast: HPFa | 0.889 ± 0.029 | 0.815 ± 0.018 | 0.7742 ± 0.00098 | 0.688 ± 0.0084 | 0.6378 ± 0.0038 | 0.60406 ± 0.00052 | 0.537 ± 0.013 | 0.489 ± 0.022 | 0.452 ± 0.028
0.1 µM, coculture fibroblast: HUF | 0.8482 ± 0.0066 | 0.787 ± 0.029 | 0.738 ± 0.055 | 0.66 ± 0.061 | 0.622 ± 0.072 | 0.61 ± 0.088 | 0.561 ± 0.096 | 0.541 ± 0.11 | 0.514 ± 0.12
0.1 µM, coculture fibroblast: Hs5 | 0.846 ± 0.0015 | 0.796 ± 0.036 | 0.786 ± 0.021 | 0.81017 ± 0.00015 | 0.718 ± 0.017 | 0.703 ± 0.019 | 0.683 ± 0.0039 | 0.663 ± 0.0097 | 0.675 ± 0.028
0.1 µM, coculture fibroblast: Hs27A | 0.711 ± 0.0077 | 0.61841 ± 1.8e-05 | 0.5894 ± 0.0054 | 0.594 ± 0.0061 | 0.4702 ± 0.00089 | 0.44767 ± 0.00043 | 0.39649 ± 0.0002 | 0.359 ± 0.0039 | 0.335 ± 0.0059
0.1 µM, coculture fibroblast: Hs343T | 0.796 ± 0.0082 | 0.775 ± 0.0084 | 0.736 ± 0.018 | 0.716 ± 0.021 | 0.641 ± 0.02 | 0.622 ± 0.026 | 0.589 ± 0.032 | 0.566 ± 0.031 | 0.559 ± 0.034
0.1 µM, coculture fibroblast: WS1 | 0.814 ± 0.011 | 0.768 ± 0.024 | 0.75 ± 0.051 | 0.699 ± 0.065 | 0.655 ± 0.088 | 0.632 ± 0.1 | 0.591 ± 0.11 | 0.564 ± 0.12 | 0.54 ± 0.13
1 µM, coculture fibroblast: C12385 | 0.822 ± 0.029 | 0.77 ± 0.0089 | 0.714 ± 0.032 | 0.638 ± 0.053 | 0.572 ± 0.068 | 0.517 ± 0.079 | 0.487 ± 0.094 | 0.451 ± 0.099 | 0.437 ± 0.1
1 µM, coculture fibroblast: H6013 | 0.783 ± 0.059 | 0.731 ± 0.099 | 0.688 ± 0.094 | 0.673 ± 0.099 | 0.605 ± 0.082 | 0.588 ± 0.073 | 0.551 ± 0.067 | 0.532 ± 0.062 | 0.49 ± 0.071
1 µM, coculture fibroblast: H6019 | 0.855 ± 0.04 | 0.819 ± 0.046 | 0.816 ± 0.054 | 0.768 ± 0.06 | 0.739 ± 0.047 | 0.727 ± 0.051 | 0.689 ± 0.046 | 0.655 ± 0.037 | 0.626 ± 0.041
1 µM, coculture fibroblast: H6076 | 0.811 ± 0.013 | 0.795 ± 0.011 | 0.765 ± 0.04 | 0.745 ± 0.066 | 0.689 ± 0.068 | 0.68 ± 0.085 | 0.656 ± 0.09 | 0.637 ± 0.095 | 0.646 ± 0.1
1 µM, coculture fibroblast: H6231 | 0.7863 ± 0.0018 | 0.767 ± 0.031 | 0.706 ± 0.027 | 0.607 ± 0.01 | 0.584 ± 0.011 | 0.548 ± 0.011 | 0.51 ± 0.016 | 0.476 ± 0.018 | 0.46 ± 0.03
1 µM, coculture fibroblast: HADF | 0.788 ± 0.045 | 0.754 ± 0.044 | 0.72 ± 0.046 | 0.711 ± 0.046 | 0.629 ± 0.061 | 0.608 ± 0.063 | 0.571 ± 0.062 | 0.545 ± 0.065 | 0.503 ± 0.054
1 µM, coculture fibroblast: HCFa | 0.7781 ± 0.0069 | 0.691 ± 0.024 | 0.631 ± 0.037 | 0.602 ± 0.041 | 0.52 ± 0.045 | 0.484 ± 0.045 | 0.44 ± 0.041 | 0.399 ± 0.03 | 0.379 ± 0.022
1 µM, coculture fibroblast: HCPF | 0.786 ± 0.016 | 0.767 ± 0.015 | 0.742 ± 0.01 | 0.681 ± 0.027 | 0.663 ± 0.019 | 0.631 ± 0.029 | 0.596 ± 0.035 | 0.57 ± 0.033 | 0.563 ± 0.038
1 µM, coculture fibroblast: HHSteC | 0.826 ± 0.0088 | 0.766 ± 0.018 | 0.727 ± 0.03 | 0.682 ± 0.027 | 0.621 ± 0.03 | 0.597 ± 0.027 | 0.555 ± 0.025 | 0.528 ± 0.033 | 0.458 ± 0.03
1 µM, coculture fibroblast: HMF | 0.808 ± 0.012 | 0.779 ± 0.019 | 0.734 ± 0.01 | 0.7065 ± 0.0061 | 0.6654 ± 0.0053 | 0.639 ± 0.0085 | 0.603 ± 0.014 | 0.579 ± 0.021 | 0.567 ± 0.027
1 µM, coculture fibroblast: HPFa | 0.897 ± 0.033 | 0.833 ± 0.062 | 0.79 ± 0.054 | 0.673 ± 0.053 | 0.611 ± 0.045 | 0.56 ± 0.019 | 0.484 ± 0.012 | 0.435 ± 0.0078 | 0.3952 ± 0.0013
1 µM, coculture fibroblast: HUF | 0.851 ± 0.03 | 0.76 ± 0.014 | 0.701 ± 0.023 | 0.629 ± 0.028 | 0.577 ± 0.017 | 0.546 ± 0.026 | 0.498 ± 0.025 | 0.469 ± 0.031 | 0.435 ± 0.028
1 µM, coculture fibroblast: Hs5 | 0.8394 ± 0.0018 | 0.797 ± 0.035 | 0.77 ± 0.01 | 0.756 ± 0.013 | 0.676 ± 0.017 | 0.654 ± 0.021 | 0.628 ± 0.028 | 0.617 ± 0.026 | 0.606 ± 0.044
1 µM, coculture fibroblast: Hs27A | 0.718 ± 0.016 | 0.653 ± 0.015 | 0.605 ± 0.015 | 0.602 ± 0.01 | 0.472 ± 0.016 | 0.461 ± 0.025 | 0.412 ± 0.034 | 0.378 ± 0.043 | 0.345 ± 0.03
1 µM, coculture fibroblast: Hs343T | 0.8021 ± 0.0035 | 0.795 ± 0.019 | 0.723 ± 0.011 | 0.64 ± 0.017 | 0.603 ± 0.011 | 0.5734 ± 0.0032 | 0.527 ± 0.019 | 0.496 ± 0.022 | 0.476 ± 0.029
1 µM, coculture fibroblast: WS1 | 0.815 ± 0.028 | 0.764 ± 0.008 | 0.754 ± 0.041 | 0.709 ± 0.045 | 0.672 ± 0.059 | 0.656 ± 0.058 | 0.618 ± 0.059 | 0.604 ± 0.067 | 0.596 ± 0.073
